This is one part of the list.
Legend:
Assay in all cases: log2 fold change, soluble protein after heating vs DMSO (PISA); higher = thermal stabilisation; K562 cells, 10 uM, 30 min; active = over 0.2 and 3.5 SD of the protein, either way, in both replicates (recomputed)
[1] = compound: CC1=C(C=C(C=C1)NC(=O)C2=CC(=CC=C2)C(C)(C)C#N)NC3=CC4=C(C=C3)N=CN(C4=O)C
Summary of the method: (§1)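 K562 cells at 2×10^6 cells/mL were exposed to 10 μM compound for 30 min, then aliquots were heated for 3 min across 48°C-58°C, pooled, and extracted in PBS containing 0.5% NP-40 at 4°C. The supernatant after 21,000xg for 90 min was taken as soluble protein and measured by TMTpro 16plex LC-MS/MS with channel sums equalised. Thermal stability is reported relative to control samples, with values from duplicates. Fold changes are given on a log2 scale.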

Sequences of proteins named here, by UniProt entry; tags and fusion partners are left off. A change or cut given only in a name is not applied to a line headed by its entry.
UniProt Q9H3N1: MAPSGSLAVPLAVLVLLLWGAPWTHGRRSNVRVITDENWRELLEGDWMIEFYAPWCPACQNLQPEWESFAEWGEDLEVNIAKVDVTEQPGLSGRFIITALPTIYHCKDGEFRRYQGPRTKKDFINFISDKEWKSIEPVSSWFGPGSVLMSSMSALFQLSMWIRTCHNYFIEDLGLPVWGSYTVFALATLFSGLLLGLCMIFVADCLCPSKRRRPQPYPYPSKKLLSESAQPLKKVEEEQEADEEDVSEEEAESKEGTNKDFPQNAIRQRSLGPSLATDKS
UniProt Q9BXJ8: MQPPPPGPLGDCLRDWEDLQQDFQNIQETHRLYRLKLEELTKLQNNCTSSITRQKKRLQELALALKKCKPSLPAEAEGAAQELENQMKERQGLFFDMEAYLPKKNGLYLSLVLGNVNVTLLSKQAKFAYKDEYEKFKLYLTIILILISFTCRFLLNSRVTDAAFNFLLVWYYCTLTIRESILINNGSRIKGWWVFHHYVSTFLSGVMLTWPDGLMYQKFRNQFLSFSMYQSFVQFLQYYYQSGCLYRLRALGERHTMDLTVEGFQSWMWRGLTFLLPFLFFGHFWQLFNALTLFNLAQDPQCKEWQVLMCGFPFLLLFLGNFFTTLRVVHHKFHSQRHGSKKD
UniProt Q9HC07: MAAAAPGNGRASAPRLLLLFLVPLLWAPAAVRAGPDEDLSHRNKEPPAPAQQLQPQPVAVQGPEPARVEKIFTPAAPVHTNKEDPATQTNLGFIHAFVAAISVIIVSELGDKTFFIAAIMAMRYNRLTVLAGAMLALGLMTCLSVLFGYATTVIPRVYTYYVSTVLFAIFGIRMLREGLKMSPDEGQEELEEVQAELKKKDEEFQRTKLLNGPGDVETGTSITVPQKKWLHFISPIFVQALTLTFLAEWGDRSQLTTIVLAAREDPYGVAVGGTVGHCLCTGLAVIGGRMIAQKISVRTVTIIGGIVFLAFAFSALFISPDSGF
UniProt Q8NDZ6: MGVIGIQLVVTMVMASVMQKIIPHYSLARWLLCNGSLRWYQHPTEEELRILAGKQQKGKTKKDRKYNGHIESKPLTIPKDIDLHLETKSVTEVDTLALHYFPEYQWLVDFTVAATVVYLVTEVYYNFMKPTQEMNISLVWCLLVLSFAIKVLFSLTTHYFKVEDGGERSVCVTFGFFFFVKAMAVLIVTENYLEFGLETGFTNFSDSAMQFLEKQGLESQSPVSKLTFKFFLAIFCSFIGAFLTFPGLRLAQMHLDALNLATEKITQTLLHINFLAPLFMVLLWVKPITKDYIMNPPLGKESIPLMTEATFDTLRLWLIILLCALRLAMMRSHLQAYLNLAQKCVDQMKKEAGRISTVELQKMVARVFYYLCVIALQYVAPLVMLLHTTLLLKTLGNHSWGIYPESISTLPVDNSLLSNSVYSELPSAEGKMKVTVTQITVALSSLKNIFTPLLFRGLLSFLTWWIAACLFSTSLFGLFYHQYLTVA
UniProt Q96K49: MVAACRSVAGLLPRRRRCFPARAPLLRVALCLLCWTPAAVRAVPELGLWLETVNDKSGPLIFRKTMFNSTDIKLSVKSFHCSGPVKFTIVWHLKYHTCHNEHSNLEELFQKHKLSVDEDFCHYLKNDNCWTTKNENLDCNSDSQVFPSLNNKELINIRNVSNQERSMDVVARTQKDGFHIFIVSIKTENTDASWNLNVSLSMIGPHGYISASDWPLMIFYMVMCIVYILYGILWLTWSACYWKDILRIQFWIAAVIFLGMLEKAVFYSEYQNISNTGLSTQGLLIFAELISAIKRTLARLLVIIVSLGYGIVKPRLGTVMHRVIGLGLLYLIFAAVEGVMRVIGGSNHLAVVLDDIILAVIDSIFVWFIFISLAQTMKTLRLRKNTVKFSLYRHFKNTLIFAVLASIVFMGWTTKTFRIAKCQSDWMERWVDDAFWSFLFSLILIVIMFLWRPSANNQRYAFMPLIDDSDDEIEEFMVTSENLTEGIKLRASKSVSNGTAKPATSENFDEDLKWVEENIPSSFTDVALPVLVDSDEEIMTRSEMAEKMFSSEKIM
UniProt Q96B77: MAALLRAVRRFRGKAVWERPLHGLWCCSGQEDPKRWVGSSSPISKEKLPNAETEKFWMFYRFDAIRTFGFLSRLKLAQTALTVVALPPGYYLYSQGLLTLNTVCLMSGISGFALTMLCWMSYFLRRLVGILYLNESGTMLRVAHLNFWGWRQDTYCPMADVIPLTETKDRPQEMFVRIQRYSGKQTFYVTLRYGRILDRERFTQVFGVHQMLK
UniProt Q86WV6: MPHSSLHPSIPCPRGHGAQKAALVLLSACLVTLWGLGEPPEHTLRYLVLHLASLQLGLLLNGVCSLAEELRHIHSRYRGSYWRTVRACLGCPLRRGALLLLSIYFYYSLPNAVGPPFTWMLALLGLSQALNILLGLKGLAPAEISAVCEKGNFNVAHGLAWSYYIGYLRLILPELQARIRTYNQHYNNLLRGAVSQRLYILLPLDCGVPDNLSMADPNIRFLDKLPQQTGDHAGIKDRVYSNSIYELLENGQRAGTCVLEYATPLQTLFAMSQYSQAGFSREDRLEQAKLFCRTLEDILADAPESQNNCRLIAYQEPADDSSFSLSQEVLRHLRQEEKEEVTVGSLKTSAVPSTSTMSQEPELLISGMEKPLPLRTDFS
UniProt Q7Z7H5: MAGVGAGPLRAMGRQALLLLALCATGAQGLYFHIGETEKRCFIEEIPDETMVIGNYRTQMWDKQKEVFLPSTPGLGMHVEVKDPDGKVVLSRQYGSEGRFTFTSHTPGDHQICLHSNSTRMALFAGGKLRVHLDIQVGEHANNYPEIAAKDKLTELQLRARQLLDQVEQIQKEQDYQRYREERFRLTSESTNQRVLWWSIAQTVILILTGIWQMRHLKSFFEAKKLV
UniProt Q9HD45: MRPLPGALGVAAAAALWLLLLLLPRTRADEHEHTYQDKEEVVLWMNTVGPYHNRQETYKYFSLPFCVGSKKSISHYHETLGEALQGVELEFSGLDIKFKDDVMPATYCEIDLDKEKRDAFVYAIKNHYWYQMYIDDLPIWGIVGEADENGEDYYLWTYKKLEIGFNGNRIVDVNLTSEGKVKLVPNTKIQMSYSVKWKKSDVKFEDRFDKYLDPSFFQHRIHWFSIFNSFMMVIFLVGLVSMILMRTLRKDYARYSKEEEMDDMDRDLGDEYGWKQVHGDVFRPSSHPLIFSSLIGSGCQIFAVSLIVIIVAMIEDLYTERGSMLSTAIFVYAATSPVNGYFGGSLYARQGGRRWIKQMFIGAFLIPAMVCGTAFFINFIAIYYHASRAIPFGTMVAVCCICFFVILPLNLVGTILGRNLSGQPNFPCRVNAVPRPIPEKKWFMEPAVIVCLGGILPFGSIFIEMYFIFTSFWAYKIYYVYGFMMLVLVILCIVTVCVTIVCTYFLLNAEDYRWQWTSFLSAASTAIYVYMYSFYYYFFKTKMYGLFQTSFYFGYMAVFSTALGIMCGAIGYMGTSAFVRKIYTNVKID
UniProt Q9NX00: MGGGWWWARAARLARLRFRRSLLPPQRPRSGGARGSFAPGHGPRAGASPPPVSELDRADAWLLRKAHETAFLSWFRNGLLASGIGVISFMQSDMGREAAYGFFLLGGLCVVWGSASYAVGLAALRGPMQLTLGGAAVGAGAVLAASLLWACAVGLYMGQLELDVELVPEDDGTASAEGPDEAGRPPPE
UniProt O15321, whole entry, looked up: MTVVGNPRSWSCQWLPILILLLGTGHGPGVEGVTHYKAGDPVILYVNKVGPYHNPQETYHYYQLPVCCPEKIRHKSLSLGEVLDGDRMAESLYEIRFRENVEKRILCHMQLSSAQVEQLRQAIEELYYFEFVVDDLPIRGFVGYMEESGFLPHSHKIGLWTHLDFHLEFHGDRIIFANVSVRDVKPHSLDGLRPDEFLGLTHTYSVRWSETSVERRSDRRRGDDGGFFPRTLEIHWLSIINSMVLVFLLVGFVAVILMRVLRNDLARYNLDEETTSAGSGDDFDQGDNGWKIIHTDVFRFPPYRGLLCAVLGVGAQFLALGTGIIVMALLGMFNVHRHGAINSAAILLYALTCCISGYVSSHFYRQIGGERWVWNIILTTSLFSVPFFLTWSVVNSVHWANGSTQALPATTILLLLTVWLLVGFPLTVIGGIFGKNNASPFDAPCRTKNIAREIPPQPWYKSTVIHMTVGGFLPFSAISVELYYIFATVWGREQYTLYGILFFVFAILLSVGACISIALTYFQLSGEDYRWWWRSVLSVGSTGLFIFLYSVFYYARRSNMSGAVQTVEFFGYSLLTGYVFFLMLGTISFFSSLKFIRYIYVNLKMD
UniProt P42167: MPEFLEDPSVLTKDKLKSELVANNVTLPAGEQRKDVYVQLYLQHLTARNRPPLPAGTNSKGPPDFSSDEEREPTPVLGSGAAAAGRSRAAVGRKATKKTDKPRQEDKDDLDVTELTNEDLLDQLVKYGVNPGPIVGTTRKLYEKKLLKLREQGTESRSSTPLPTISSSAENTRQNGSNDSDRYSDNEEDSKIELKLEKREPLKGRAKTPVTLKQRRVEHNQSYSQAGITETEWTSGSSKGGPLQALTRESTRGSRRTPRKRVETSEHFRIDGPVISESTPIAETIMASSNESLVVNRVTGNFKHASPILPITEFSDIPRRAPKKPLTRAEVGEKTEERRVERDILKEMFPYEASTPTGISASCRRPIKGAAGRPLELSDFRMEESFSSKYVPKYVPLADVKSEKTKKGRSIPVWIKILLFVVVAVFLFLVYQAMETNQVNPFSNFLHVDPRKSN
UniProt Q9H0V1: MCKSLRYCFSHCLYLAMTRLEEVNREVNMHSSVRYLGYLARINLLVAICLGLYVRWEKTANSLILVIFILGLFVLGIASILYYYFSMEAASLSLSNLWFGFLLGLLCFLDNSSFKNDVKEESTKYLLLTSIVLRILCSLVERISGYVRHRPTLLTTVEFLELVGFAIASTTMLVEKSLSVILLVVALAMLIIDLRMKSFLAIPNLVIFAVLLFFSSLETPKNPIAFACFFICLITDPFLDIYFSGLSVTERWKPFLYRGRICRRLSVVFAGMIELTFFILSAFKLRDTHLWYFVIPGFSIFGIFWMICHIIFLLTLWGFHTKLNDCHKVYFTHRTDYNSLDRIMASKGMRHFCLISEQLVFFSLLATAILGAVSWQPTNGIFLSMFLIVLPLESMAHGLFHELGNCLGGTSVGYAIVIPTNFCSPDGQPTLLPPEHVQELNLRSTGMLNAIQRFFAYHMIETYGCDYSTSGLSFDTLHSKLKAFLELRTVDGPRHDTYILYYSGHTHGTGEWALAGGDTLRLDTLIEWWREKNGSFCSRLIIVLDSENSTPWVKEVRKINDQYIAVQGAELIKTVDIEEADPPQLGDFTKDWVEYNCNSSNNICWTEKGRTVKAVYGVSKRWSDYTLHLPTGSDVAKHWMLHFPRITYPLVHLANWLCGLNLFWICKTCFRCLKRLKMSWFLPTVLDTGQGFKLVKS
UniProt Q92544: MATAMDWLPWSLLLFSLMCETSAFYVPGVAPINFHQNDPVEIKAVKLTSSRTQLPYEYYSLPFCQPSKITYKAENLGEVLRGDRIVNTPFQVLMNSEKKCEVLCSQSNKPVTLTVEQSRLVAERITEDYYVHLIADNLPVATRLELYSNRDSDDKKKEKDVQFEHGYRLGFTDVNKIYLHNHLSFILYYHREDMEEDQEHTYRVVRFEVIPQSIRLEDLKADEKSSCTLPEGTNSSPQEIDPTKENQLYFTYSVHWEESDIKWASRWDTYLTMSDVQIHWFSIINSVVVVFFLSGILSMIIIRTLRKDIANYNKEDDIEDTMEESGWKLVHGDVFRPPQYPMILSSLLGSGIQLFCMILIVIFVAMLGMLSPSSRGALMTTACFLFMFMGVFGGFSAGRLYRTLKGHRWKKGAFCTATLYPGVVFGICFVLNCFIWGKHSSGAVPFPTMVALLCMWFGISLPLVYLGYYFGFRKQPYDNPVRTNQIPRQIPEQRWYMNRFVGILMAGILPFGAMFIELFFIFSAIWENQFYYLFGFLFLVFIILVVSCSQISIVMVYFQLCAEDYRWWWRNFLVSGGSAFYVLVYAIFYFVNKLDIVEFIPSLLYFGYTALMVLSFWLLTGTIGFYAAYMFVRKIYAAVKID
UniProt Q9BVK8: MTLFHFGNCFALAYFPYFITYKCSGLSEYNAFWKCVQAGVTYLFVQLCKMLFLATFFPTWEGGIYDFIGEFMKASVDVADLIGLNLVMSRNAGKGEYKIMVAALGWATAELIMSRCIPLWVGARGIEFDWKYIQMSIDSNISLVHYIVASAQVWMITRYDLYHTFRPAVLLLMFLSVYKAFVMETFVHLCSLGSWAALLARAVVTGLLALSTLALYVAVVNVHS

[2] = compound: CC1=C(C=C(C=C1)NC(=O)C2=CC(=CC=C2)N(C)C)NC(=O)C3=CC=C(C=C3)O
Summary of the method: as §1

[3] = compound: CC1=CC=C(C=C1)SC2=C3C=C(SC3=CN=C2)C(=O)N
Summary of the method: as §1

[4] = compound: CC1=NC(=CC=C1)C2=C(N=C(N2)C(C)(C)C)C3=CC4=NC=CN=C4C=C3
Summary of the method: as §1

[5] = compound: CCCCN(Cc1ccc(C(=O)NO)cc1)C(=O)Nc1ccccc1 [Nexturastat A]
Summary of the method: as §1

[6] = compound: CCCS(=O)(=O)Nc1ccc(F)c(C(=O)c2c[nH]c3ncc(-c4ccc(Cl)cc4)cc23)c1F [vemurafenib]
Summary of the method: as §1

[7] = compound: CCCS(=O)(=O)Nc1ccc(F)c(C(=O)c2c[nH]c3ncc(Cl)cc23)c1F
Summary of the method: as §1

[8] = compound: CCCc1cc(C)[nH]c(=O)c1CNC(=O)c1cc(-c2ccnc(N3CCN(C)CC3)c2)cc2c1cnn2C(C)C
Summary of the method: as §1

[9] = compound: CCN(CC)Cc1ccc2cc(COC(=O)Nc3ccc(C(=O)NO)cc3)ccc2c1 [givinostat]
Summary of the method: as §1

[10] = compound: CCN(CCCOc1ccc2c(Nc3cc(CC(=O)Nc4cccc(F)c4)[nH]n3)ncnc2c1)CCOP(=O)(O)O [barasertib]
Summary of the method: as §1

[11] = compound: CC[C@@H]1C(=O)N(C)c2cnc(Nc3ccc(C(=O)NC4CCN(C)CC4)cc3OC)nc2N1C1CCCC1
Summary of the method: as §1

[12] = compound: CC[C@@H]1C(=O)N(C)c2cnc(Nc3ccc(C(=O)N[C@H]4CC[C@H](N5CCN(CC6CC6)CC5)CC4)cc3OC)nc2N1C(C)C [volasertib]
Summary of the method: as §1

[13] = compound: CC[C@H](C)N1C=C(C2=C(C=C(C=C21)C3=CN=C(C=C3)N4CCNCC4)C(=O)NCC5=C(C=C(NC5=O)C)C)C
Summary of the method: as §1

[14] = compound: CC[C@H](C)[C@@H](C(=O)N[C@@H]([C@@H](C)O)C(=O)N[C@@H](CC(C)C)C(=O)[C@]1(CO1)C)NC(=O)[C@H]([C@@H](C)CC)N(C)C(=O)C [epoxomicin]
Summary of the method: as §1

[15] = compound: CCn1c(C(=O)N(C2CC2)C2CC2)cc2c3c(ncn3C)c(Nc3cc(C)n(C)n3)nc21
Summary of the method: as §1

[16] = compound: CCn1cc(-c2ccnc3[nH]c(-c4cccc(CN(C)C)c4)cc23)c(-c2ccc(NC(=O)N(C)C)cc2)n1
Summary of the method: as §1

[17] = compound: CN(C)CC(=O)Nc1ccc2[nH]c(=O)c3ccccc3c2c1
Summary of the method: as §1

[18] = compound: CN(CCOC1=CC=C(C=C1)C[C@H]2C(=O)NC(=O)S2)C3=CC=CC=N3 (racemic) [rosiglitazone]
Summary of the method: as §1

[19] = compound: CN1C2=C(C3=C1C(=O)N(N=C3)CC4=CC(=CC=C4)N)SC(=C2)S(=O)C
Summary of the method: as §1

[20] = compound: CN1CCC(CNc2ccc3ncc(-c4cccc(OC(F)(F)F)c4)n3n2)CC1
Summary of the method: as §1

| Target | log2 fold change [1] | log2 fold change [2] | log2 fold change [3] | log2 fold change [4] | log2 fold change [5] | log2 fold change [6] | log2 fold change [7] | log2 fold change [8] | log2 fold change [9] | log2 fold change [10] | log2 fold change [11] | log2 fold change [12] | log2 fold change [13] | log2 fold change [14] | log2 fold change [15] | log2 fold change [16] | log2 fold change [17] | log2 fold change [18] | log2 fold change [19] | log2 fold change [20] |
| --- | --- | --- | --- | --- | --- | --- | --- | --- | --- | --- | --- | --- | --- | --- | --- | --- | --- | --- | --- | --- |
| TMX1 (UniProt Q9H3N1) | inactive: -0.025 | inactive: 0.023 | inactive: -0.031 | inactive: -0.017 | inactive: -0.049 | inactive: -0.013 | inactive: -0.009 | inactive: 0 | inactive: -0.04 | inactive: -0.008 | inactive: -0.02 | inactive: -0.02 | inactive: -0.004 | inactive: 0.004 | inactive: 0.005 | inactive: -0.01 | inactive: -0.012 | inactive: -0.003 | inactive: -0.014 | inactive: 0.058 |
| TMEM120A (UniProt Q9BXJ8) | inactive: 0.181 | inactive: 0.007 | inactive: 0.115 | inactive: -0.004 | inactive: -0.259 | inactive: 0.06 | inactive: 0.085 | inactive: -0.007 | inactive: 0.116 | inactive: -0.006 | inactive: 0.127 | inactive: -0.053 | inactive: 0.119 | inactive: 0.198 | – | inactive: -0.128 | inactive: 0.015 | – | inactive: -0.061 | inactive: 0.07 |
| TMEM165 (UniProt Q9HC07) | inactive: -0.075 | inactive: 0.035 | inactive: 0.027 | inactive: 0.015 | inactive: 0 | inactive: -0.138 | inactive: 0.026 | inactive: 0.179 | inactive: 0.051 | inactive: -0.047 | inactive: -0.002 | inactive: 0.06 | inactive: 0.018 | inactive: 0.013 | inactive: 0.026 | inactive: -0.005 | inactive: -0.068 | inactive: -0.011 | inactive: 0.018 | inactive: 0.039 |
| TMEM161B (UniProt Q8NDZ6) | inactive: 0.003 | inactive: -0.012 | inactive: 0.026 | inactive: 0.008 | inactive: -0.063 | inactive: 0.079 | inactive: 0.053 | inactive: 0.012 | inactive: 0.032 | inactive: -0.037 | inactive: -0.028 | inactive: -0.038 | inactive: 0.062 | inactive: 0.058 | – | inactive: 0.02 | inactive: 0.079 | – | inactive: -0.068 | inactive: -0.186 |
| TMEM87B (UniProt Q96K49) | inactive: -0.018 | inactive: -0.013 | inactive: 0.112 | inactive: -0.008 | inactive: -0.059 | inactive: -0.048 | inactive: -0.028 | inactive: 0.008 | inactive: -0.063 | inactive: 0.048 | inactive: -0.088 | inactive: -0.148 | inactive: 0.092 | inactive: 0.018 | – | inactive: -0.103 | inactive: -0.016 | – | inactive: -0.143 | active: -0.436 |
| TMEM186 (UniProt Q96B77) | inactive: 0.021 | inactive: -0.02 | inactive: -0.087 | inactive: -0.014 | inactive: 0.049 | inactive: -0.007 | inactive: -0.026 | inactive: -0.268 | inactive: -0.009 | inactive: -0.038 | inactive: 0.05 | inactive: 0.146 | inactive: 0.055 | inactive: -0.017 | inactive: 0 | – | inactive: 0.046 | inactive: 0.045 | inactive: 0.01 | – |
| TMEM173 (UniProt Q86WV6) | inactive: -0.037 | inactive: -0.01 | inactive: -0.043 | inactive: -0.008 | inactive: -0.212 | inactive: 0.056 | inactive: -0.043 | inactive: -0.008 | inactive: -0.076 | inactive: 0.055 | inactive: 0.219 | inactive: 0.156 | inactive: 0.086 | inactive: 0.026 | – | inactive: -0.017 | inactive: 0.032 | – | inactive: -0.049 | active: 0.293 |
| TMED4 (UniProt Q7Z7H5) | inactive: 0.002 | inactive: 0.028 | inactive: 0.029 | inactive: 0.057 | inactive: -0.104 | inactive: 0.077 | inactive: -0.01 | inactive: 0.032 | inactive: 0.014 | inactive: -0.035 | inactive: -0.094 | inactive: -0.025 | inactive: -0.033 | inactive: -0.001 | inactive: -0.016 | inactive: -0.028 | inactive: 0.01 | inactive: 0.022 | inactive: -0.081 | inactive: -0.017 |
| TM9SF3 (UniProt Q9HD45) | inactive: 0.018 | inactive: -0.036 | inactive: -0.007 | inactive: -0.005 | inactive: -0.071 | inactive: -0.082 | inactive: -0.002 | inactive: 0.085 | inactive: 0.001 | inactive: -0.033 | inactive: 0.026 | inactive: -0.052 | inactive: -0.015 | inactive: 0.02 | inactive: -0.003 | inactive: -0.037 | inactive: 0.007 | inactive: 0.036 | inactive: -0.129 | inactive: -0.012 |
| TMEM160 (UniProt Q9NX00) | inactive: -0.037 | inactive: -0.005 | inactive: -0.052 | inactive: -0.213 | inactive: 0.083 | inactive: -0.083 | inactive: 0.049 | inactive: 0.062 | inactive: -0.005 | inactive: -0.039 | inactive: 0.079 | inactive: -0.02 | inactive: -0.058 | inactive: -0.065 | inactive: 0.018 | inactive: 0.021 | inactive: 0.047 | inactive: -0.047 | inactive: 0.261 | inactive: -0.036 |
| TM9SF1 (UniProt O15321) | inactive: -0.035 | inactive: 0.001 | inactive: -0.036 | inactive: -0.052 | inactive: -0.008 | inactive: -0.019 | inactive: -0.014 | inactive: 0.05 | inactive: 0 | inactive: -0.095 | inactive: -0.216 | inactive: -0.232 | inactive: -0.039 | inactive: -0.024 | inactive: -0.031 | inactive: -0.04 | inactive: 0.028 | inactive: 0.092 | inactive: -0.05 | inactive: -0.179 |
| TMPO (UniProt P42167) | inactive: 0.006 | inactive: 0.023 | inactive: -0.013 | inactive: 0.01 | inactive: -0.071 | inactive: 0.007 | inactive: -0.01 | inactive: -0.02 | inactive: -0.007 | inactive: -0.005 | inactive: -0.03 | inactive: 0.002 | inactive: -0.015 | inactive: 0.008 | inactive: 0 | inactive: 0.02 | inactive: -0.001 | inactive: 0.011 | inactive: -0.023 | inactive: 0.051 |
| TMEM168 (UniProt Q9H0V1) | inactive: 0.011 | inactive: -0.012 | inactive: -0.013 | inactive: -0.007 | inactive: -0.22 | inactive: 0.015 | inactive: -0.044 | inactive: -0.065 | inactive: -0.004 | inactive: -0.043 | inactive: -0.067 | inactive: -0.074 | inactive: -0.066 | inactive: 0.08 | inactive: 0.048 | inactive: -0.016 | inactive: 0.006 | inactive: 0.037 | inactive: -0.007 | inactive: -0.013 |
| TLK1 (UniProt Q9UKI8) | inactive: 0.062 | inactive: -0.009 | inactive: 0.018 | inactive: 0.011 | inactive: 0.012 | inactive: 0.008 | inactive: 0.019 | inactive: -0.053 | inactive: 0.078 | inactive: 0.079 | inactive: 0.017 | inactive: -0.088 | inactive: 0.02 | inactive: -0.018 | – | inactive: -0.054 | inactive: 0.033 | – | inactive: -0.086 | inactive: -0.037 |
| TM9SF4 (UniProt Q92544) | inactive: 0.084 | inactive: -0.022 | inactive: 0.014 | inactive: -0.012 | inactive: -0.029 | inactive: 0.031 | inactive: 0.073 | inactive: 0.034 | inactive: 0.054 | inactive: 0.004 | inactive: -0.225 | active: -0.484 | inactive: 0.024 | inactive: -0.055 | – | inactive: 0.052 | inactive: 0.001 | – | inactive: -0.05 | inactive: -0.084 |
| TMEM147 (UniProt Q9BVK8) | inactive: 0.029 | inactive: 0.056 | inactive: -0.069 | – | inactive: -0.114 | inactive: 0.046 | inactive: 0.091 | inactive: -0.192 | inactive: -0.028 | inactive: 0.054 | – | inactive: -0.103 | inactive: -0.033 | inactive: -0.118 | inactive: -0.039 | – | inactive: 0.292 | inactive: 0.083 | inactive: 0.031 | – |
| TLR9 isoform 4 (UniProt Q9NR96) | inactive: -0.047 | inactive: -0.045 | – | – | inactive: -0.127 | inactive: -0.1 | – | inactive: -0.036 | inactive: -0.01 | inactive: 0.006 | inactive: -0.055 | – | inactive: 0.048 | inactive: 0.046 | inactive: -0.019 | – | inactive: -0.013 | inactive: -0.019 | inactive: -0.221 | – |

Looked up above.
TMX1 (UniProt Q9H3N1) | log2 fold change [19]: inactive: -0.014
TMEM120A (UniProt Q9BXJ8) | log2 fold change [9]: inactive: 0.116
